# In all, about 1,400 compounds went through this assay and about 30 (2%) were called active. Roughly 15% stayed inconclusive and do not appear here. Calls come from the whole dose curve; as a rule, active = well fitted inhibition curve with a large enough effect; inconclusive = small, poorly fitted or top-dose-only effect; inactive = flat fitted curve, though single readings scatter. This is one part of the list.
# Experiment: Firefly Luciferase Counterscreen for Inhibitors of ATXN expression
# Settings: luminescence; series mostly up to 57.5 µM; activity change, negative = inhibition: at the top concentration
# From the text: University of Utah School of Medicine, Salt Lake City, Utah
# Spinocerebellar ataxia type 2 (SCA2) is a multisystem neurodegenerative disease caused by a dominantly acting mutation leading to expansion of a polyQ domain in the ataxin-2 protein (ATXN2). SCA2 patients develop progressive ataxia and later lose function in other neuronal systems. Prominent parkinsonian signs develop in some patients. Like many neurodegenerative disorders, no symptomatic or disease-modifying treatments are known.
# The primary objective of the proposed research is to identify compounds inhibiting ATXN2 expression and to test them for efficacy in SCA2 mouse models. We have developed a cell-based assay paired with an in vivo mouse model using identical luciferase expression constructs. This approach takes advantage of an ATXN2-luciferase transgene, with the luciferase gene flanked by the upstream and downstream portions of the ATXN2 gene. Here we describe a 5-7 dose quantitative high thoroughput screen (qHTS) for compounds lowering ATXN2 expression. We screened the NIH Molecular Libraries Small Molecule Repository (MLSMR) and NCGC's mechanistically annotated (MIPE) and drug repurposing (NPC) collections of compounds for lowering expression of an ATXN2-luciferase reporter in HEK-293 cells. The assay is a multiplexed cell viability assay to ensure target reduction in the absence of cytotoxicity. Secondary qHTS assays included a CMV-luciferase reporter expressed in HEK-293 cells as well as a biochemical assay using recombinant luciferase to detect inhibitors of the reporter enzyme. Compounds that inhibit ATXN2 expression but is not cytotoxic were selected for confirmatory and secondary screens.
# PROTOCOL TABLE (as described by Inglese J, Shamu CE and Guy RK. 2007)
# SEQUENCE No. (e.g., 1, 2, 3, etc.); […] (e.g., Cells, Incubation, Reagent, etc.); VALUE; DESCRIPTION.
# 2; Compounds; 23 nL; Kalypsis pintool (Wako USA) equipped with a 1536-well pin head.
# 3; Enzyme; 1 uL; recombinant firefly luciferase (prepared in 50 mM Tris HCl pH7.5, 10 mM MgCl2, 0.05% BSA, 0.01% Tween20) at final concentration of 10 nM. Wells containing buffer only were used as control (set as 100% inhibition when normalizing data).
# 4; Incubation; 10 min; room temperature.
# 5; Detection; Luminescence; Viewlux plate reader (PerkinElmer).
# NOTES (numbers refer to Sequence numbers above)
# 1. Luciferase substrate is added to 1536 well, Greiner white assay plate. Evaporation was prevented by covering assay plates with metal lids containing holes to allow gas diffusion.
# 2. Compounds were added in a dose response manner with the final concentrations of 57, 11.4, 2.28, 0.46, 0.091, 0.018, 0.0037 uM. Vehicle-only plates, with DMSO being pin-transferred to columns 5-48, were inserted uniformly at the beginning and the end of each library to monitor and record any shifts in assay performance.
# 3. Recombinant firefly luciferase (10 nM final concentration) is added to the assay plate.
# 5. End-point luminescence is then measured on the Viewlux (PerkinElmer) imager equipped with a clear emission filter using a 2 sec exposure.
# Inglese J, Shamu CE and Guy RK, Reporting data from high throughput screening of small molecule libraries, Nature Chemical Biology, 2007, 3(8): 438-441. doi.org/10.1038/nchembio0807-438.
# % is set by controls: 0 for no effect and ±100 for the full control effect; potency is the fitted concentration of half-maximal effect.
Structure (SMILES),"activity change, negative = inhibition",Potency
CCCNC(=O)c1ccc2c(=O)c(O)c(-c3ccc(F)cc3)[nH]c2c1,inactive: -1.96%,–
O=C(Nc1ccc2c(c1)CCC2)C1CCN(c2c3c(nc4ncnn24)CCC3)CC1,inactive: -1.56%,–
Cc1ccnc(NC(c2ccccc2)c2ccc3cccnc3c2O)c1 (centres undefined),inactive: -12.2%,–
CC(=O)Nc1ccc(C(=O)N/N=C/c2cc(Br)cc(Br)c2O)cc1,inactive: -9.63%,–
O=C(CCN1C(=O)C2CC=CCC2C1=O)Nc1nc(-c2ccc(F)c(F)c2)cs1 (centres undefined),inactive: -5.62%,–
COC(=O)c1cc(Cl)ccc1NCC(N)c1ccccc1 (centres undefined),inactive: -2.83%,–
C[C@@H]1CN([C@@H](C)CO)S(=O)(=O)c2ccc(C#CC3CCCCC3)cc2O[C@@H]1CN(C)Cc1cccnc1,inactive: 1.2%,–
CCN1c2ccccc2NC2N=C(OC)C(c3ccccc3)C21 (centres undefined),inactive: 1.07%,–
c1ccc(Nc2nc(N3CCCCC3)nc(N3CCNCC3)n2)cc1,inactive: 3.18%,–
COc1ccc(/C=C/C(O)=C2/C(=O)N(C)C3(C)CC2c2ccccc2O3)cc1 (centres undefined),inactive: -8.99%,–
O=C(Nc1ccc(OC(F)(F)F)cc1)N1CCN(c2ccnc3cc(Cl)ccc23)CC1,inactive: 2.31%,–
CN(C)c1ccc(CNCCC(Cc2ccccc2)c2ccco2)cc1 (centres undefined),inactive: -0.286%,–
CS(=O)(=O)N1CCC(Oc2cccc(C(=O)NCCCC3CCCC3)c2)CC1,inactive: -18.3%,–
O=S(=O)(Cc1cc(NCc2ccccc2)nc(-c2ccccn2)n1)c1ccccc1,inactive: -5.07%,–
Cc1nc2ccccc2c2oc(C(=O)Nc3ccc(C(C)C)cc3)cc12,inactive: -9.58%,–
O=C(COc1nsnc1N1CCOCC1)N/N=C/c1ccccc1O,inactive: -13.4%,–
CC1(C)Cc2ccccc2C2=NNC(=O)C2=N1,inactive: -3.52%,–
O=C(Nc1ccc(Cl)cc1)Nc1ccc(N2CCCC2)c(S(=O)(=O)Nc2ccccc2Cl)c1,inactive: -1.19%,–
COc1ccc(N(C(=O)c2snc(C(N)=O)c2N)C(C(=O)NCc2ccc(F)cc2)c2ccc(O)cc2)cc1 (centres undefined),inactive: 3.26%,–
Nc1ccn(C2OC(COP(=O)(O)O)C(O)C2O)c(=O)n1 (centres undefined),inactive: 4.84%,–
CCCCC(=O)NC(c1ccc(N(C)C)cc1)c1ccc2cccnc2c1O (centres undefined),inactive: -0.812%,–
O=C(/C=C/c1ccco1)Oc1cc(Br)cc(/C=N/NC(=O)c2ccccc2O)c1,–,active: 12.6 µM

Structure (SMILES),"activity change, negative = inhibition",Potency
Cc1cccn2c(Nc3ccccc3)c(-c3ccccn3)nc12,inactive: -9.21%,–
COc1ccccc1/C=C1\SC(=S)N(CCC(=O)NC2=NCCS2)C1=O,inactive: -18.4%,–
Cc1nc(-c2ccc(F)cc2)c(CC(=O)N(C)CC(=O)Nc2ccc(Cl)c(C(F)(F)F)c2)s1,inactive: -2.48%,–
Cc1ccc(Nc2c(-c3ccccn3)nc3cccc(C)n23)cc1,inactive: -6.27%,–
Nc1nc(N)c2cc(Sc3ccc4ccccc4c3)ccc2n1,inactive: -1.81%,–
Cc1noc(C)c1CSCC(=O)Nc1nc(-c2ccc(F)c(F)c2)cs1,inactive: -7.41%,–
Cc1ccc(C(NC(=O)C2CCN(CCOc3ccc(Cl)cc3Cl)CC2)c2ccccn2)cc1 (centres undefined),inactive: -15.3%,–
Cc1cccc(OCC(=O)Nc2ccc3c(c2)nc(CCN2CCN(c4ccccn4)CC2)n3C)c1,inactive: -8.57%,–
CC(=O)Nc1sc2c(c1-c1nc3ccccc3s1)CN(C(C)C)CC2,inactive: 0.271%,–
CC1(C)Cc2ccccc2C(NNC(=O)c2ccccn2)=N1,inactive: 0.45%,–
OCCNc1c2ccccc2nc2ccccc12,inactive: -4.32%,–
O=C(CSc1ccc2c(c1)OCCO2)Nc1ccc(Cl)cn1,inactive: -15.3%,–
COc1ccc(Br)cc1C(=O)NC(=S)Nc1ccc(CN2CCOCC2)cc1,inactive: -13.5%,–
Cc1[nH]n2c(=O)cc(C(C)(C)C)nc2c1-c1ccccc1,inactive: -12.8%,–
CC1(C)Cc2c(ccc3ccccc23)C2=C(C(=O)N3CCCC3)C(=O)C(=O)N21,inactive: 1.6%,–
NC(Cc1ccccc1)c1csc(Nc2nccc(C(F)(F)F)n2)n1 (centres undefined),inactive: -3.34%,–
CCOC(=O)Oc1c(OC)cc(C(=O)O[C@@H]2C[C@@H]3CN4CCc5c([nH]c6cc(OC)ccc56)[C@H]4C[C@@H]3[C@H](C(=O)OC)[C@H]2OC)cc1OC,inactive: 0.594%,–
CC1(C)c2[nH]c3ccccc3c2C[C@H]2C(=O)N(Cc3ccccc3F)C(=O)N21,inactive: 2.29%,–
CCCCC(=O)NC(c1ccccc1OC)c1ccc2cccnc2c1O (centres undefined),inactive: -0.531%,–
CC1=CC(C)(C)Nc2ccc(OC(=O)CN3C(=O)C4CCCCC4C3=O)cc21 (centres undefined),inactive: -4.38%,–
COc1ccccc1N(CC(=O)N/N=C(\C)c1ccccc1O)S(=O)(=O)c1ccc(C)cc1,inactive: 0.136%,–
CCc1nc2ccc(C(=O)Nc3cccc(NS(C)(=O)=O)c3)cn2c1N(CC)Cc1cccc(Br)c1,inactive: -4.24%,–

Structure (SMILES),"activity change, negative = inhibition",Potency
O=C(N/N=C/c1ccc(O)cc1O)c1ccc(NC(=O)C2CCCCC2)cc1,inactive: 6.11%,–
Cc1ccc(S(=O)(=O)Nc2cc(Cl)c(O)c3ncccc23)cc1,inactive: -6.05%,–
OC(c1ccccc1)(c1nc(/C=C/c2ccc(C(F)(F)F)cc2)cs1)C(F)(F)F (centres undefined),inactive: -1.18%,–
COc1ccc(NC(=S)N(CCCN2CCOCC2)Cc2cn(C)c3ccccc23)cc1,inactive: -1.36%,–
O=C(c1ccc(CS(=O)Cc2ccccc2Cl)o1)N1CCN(c2cccc(Cl)c2)CC1 (centres undefined),inactive: -12.9%,–
COc1cc2ccnc(Cc3cccc(OC)c3OC)c2cc1OC,inactive: -4.02%,–
O=[N+]([O-])c1ccc(/C=N/N=C/c2ccc([N+](=O)[O-])o2)o1,inactive: 1.32%,–
COc1ccc(Cc2nnc(N/N=C/c3ccccc3O)[nH]c2=O)cc1OC,inactive: -16.1%,–
Oc1cccc(C(Nc2nccs2)c2ccc3cccnc3c2O)c1 (centres undefined),inactive: -9.22%,–
CCc1nc2c(OCCC3CCCCC3)cccn2c1N(C=O)Cc1ccc(OC)cc1,inactive: -5.33%,–
CCc1noc(C)c1C(=O)N1CCSC1=Nc1cccc(Cl)c1C,inactive: -2.77%,–
Cn1c2c(c(=O)n(C)c1=O)C(C(F)(F)F)(C(F)(F)F)N=C(CCC1CCCCC1)N2,inactive: -0.27%,–
Cc1ccc(OCCn2cc(/C=N/NC(=O)c3ccncc3)c3ccccc32)cc1,inactive: -19.1%,–
Cc1ccc(/C=N/Nc2ccnc3cc(Cl)ccc23)c(C)c1,inactive: -14.5%,–
Cc1cnc(C(=O)NNC(=O)c2ccc(Br)cc2)cn1,inactive: -2.36%,–
COc1ccc(/C=C2\SC(=S)N(CCCC(=O)NNC(=O)c3ccccc3O)C2=O)cc1,inactive: -6.61%,–
COc1ccc(-c2cc(NC=O)c3ncc(-c4cccc(C(=O)NCCN(C)C)c4)n3c2)cc1,inactive: -16.1%,–
Cc1ccc(C(=O)NNC(=O)CCCN2C(=O)/C(=C/c3ccccc3Cl)SC2=S)cc1,inactive: -5.14%,–
Cn1c(CCc2nc3ccccc3[nH]2)nnc1SCC#N,inactive: 1.34%,–
Cc1nc(N2CCN(c3ccccn3)CC2)c2c(C)c(C(=O)N3CCN(c4ccc(F)cc4)CC3)sc2n1,inactive: 18.8%,–

# Structures listed so far that contain a Cl atom, in the order listed:
Structure (SMILES),"activity change, negative = inhibition",Potency
COC(=O)c1cc(Cl)ccc1NCC(N)c1ccccc1 (centres undefined),inactive: -2.83%,–
O=C(Nc1ccc(OC(F)(F)F)cc1)N1CCN(c2ccnc3cc(Cl)ccc23)CC1,inactive: 2.31%,–
O=C(Nc1ccc(Cl)cc1)Nc1ccc(N2CCCC2)c(S(=O)(=O)Nc2ccccc2Cl)c1,inactive: -1.19%,–
Cc1nc(-c2ccc(F)cc2)c(CC(=O)N(C)CC(=O)Nc2ccc(Cl)c(C(F)(F)F)c2)s1,inactive: -2.48%,–
Cc1ccc(C(NC(=O)C2CCN(CCOc3ccc(Cl)cc3Cl)CC2)c2ccccn2)cc1 (centres undefined),inactive: -15.3%,–
O=C(CSc1ccc2c(c1)OCCO2)Nc1ccc(Cl)cn1,inactive: -15.3%,–
Cc1ccc(S(=O)(=O)Nc2cc(Cl)c(O)c3ncccc23)cc1,inactive: -6.05%,–
O=C(c1ccc(CS(=O)Cc2ccccc2Cl)o1)N1CCN(c2cccc(Cl)c2)CC1 (centres undefined),inactive: -12.9%,–
CCc1noc(C)c1C(=O)N1CCSC1=Nc1cccc(Cl)c1C,inactive: -2.77%,–
Cc1ccc(/C=N/Nc2ccnc3cc(Cl)ccc23)c(C)c1,inactive: -14.5%,–
Cc1ccc(C(=O)NNC(=O)CCCN2C(=O)/C(=C/c3ccccc3Cl)SC2=S)cc1,inactive: -5.14%,–

# Source: PubChem BioAssay AID1745846 (National Center for Advancing Translational Sciences (NCATS), 2022)
